Source: paper PMC5990521, “Structural basis of DUX4/IGH-driven transactivation”
For at least one entry, the source does not settle the construct or the ends of the probe. A negative result means that nothing was seen under these conditions.

By UniProt entry, the sequences of proteins in these tests, tags left out. Residues count along the entry.
UniProt Q9UBX2, 19-153, stated change not applied: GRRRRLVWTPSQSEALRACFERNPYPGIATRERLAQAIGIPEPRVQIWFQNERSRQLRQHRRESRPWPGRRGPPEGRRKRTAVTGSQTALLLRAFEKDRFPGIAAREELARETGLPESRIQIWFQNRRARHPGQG

Molecular target: DUX4 HD1-HD2 poly-Glu mutant (human) (UniProt Q9UBX2)
Test: BLI
Conditions: biotin; BLI on Octet Red 96, biotin-DNA-DRE on SA sensors, protein 0.5-32 uM (HD2) or 0.25-16 uM (HD1-HD2); recombinant protein; residues 19-153

“TTCTAATCTAATCA (double strand) [biotin-DNA-DRE (BLI)]”: no binding.
